# PubChem BioAssay AID504784 – Drosophila RNAi Screening Center – 2011
# Assay: 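Genome-wide knock-down for genes giving too much or too little stored lipid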 (primary screen)
# System: Drosophila Kc167 embryonic cells
# Knock-down reagent: long dsRNA against Drosophila genes, about 250 ng dsRNA per well
# Timing: 4 days
# Challenge: cells fed 400 µM oleic acid bound to BSA
# Detection: 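Microscope images give a droplet-to-nucleus area ratio, taken as log and converted to a screen-wide B-score; higher values mean greater lipid storage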
# Reading the numbers: droplet/nuclear area B-score: higher = more stored lipid (overstorage)
# The screen tested about 17,000 reagents; below is a random part of those that have a named target and a result. 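Each column is one replicate's B-score; the combined score over replicates was not deposited, so single values may mislead.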
Gene,amplicon,"droplet/nuclear area B-score, replicate 1","droplet/nuclear area B-score, replicate 2","droplet/nuclear area B-score, replicate 3"
CG9300 (GeneID 40128),DRSC11064,-0.0253,-0.0125,0.257
shu (GeneID 45360),DRSC04484,-0.895,-1.78,
Obp50a (GeneID 246432),DRSC22152,0.743,-0.266,
CG7362 (GeneID 41787),DRSC16236,-0.445,-0.454,-0.517
Cyp4g15 (GeneID 32093),DRSC20240,1.03,1.27,0.00283
RpL29 (GeneID 37430),DRSC04650,-2.18,0.603,
CG13041 (GeneID 39801),DRSC09922,-2.21,0.467,
CG32694 (GeneID 31933),DRSC17844,3.1,1.48,-0.644
CG32694 (GeneID 31933),DRSC17855,0.674,0.635,0.579
CG32694 (GeneID 31933),DRSC22670,1.45,-0.3,
bel (GeneID 45826),DRSC16555,-1.32,-0.05,
Trax (GeneID 41871),DRSC15709,0.674,0.444,
CG30192 (GeneID 246510),DRSC03977,-0.304,1.53,
Act87E (GeneID 48632),DRSC22578,0.803,1.83,
CG5114 (GeneID 39624),DRSC10482,-1.46,0.887,0.254
CG42249 (GeneID 32043),DRSC19383,-0.368,-1.66,-1.57
CG42249 (GeneID 32043),DRSC19826,0.909,0.727,-1.26
Sap47 (GeneID 41938),DRSC16850,2.46,-3.87,
E(spl)m7-HLH (GeneID 43160),DRSC16696,-0.738,-0.394,
Mgat1 (GeneID 37323),DRSC07463,-2.06,-0.436,
Taf1 (GeneID 40813),DRSC12607,-1.88,-2.23,
CG13898 (GeneID 38092),DRSC08368,-0.816,-1.5,
Rdl (GeneID 39054),DRSC11264,0.223,0.484,
SH3PX1 (GeneID 39136),DRSC11139,-0.675,-0.162,
CG16894 (GeneID 37280),DRSC06634,0.0477,4.8,0.184
CG16894 (GeneID 37280),DRSC21785,-0.643,-0.135,
CG7943 (GeneID 43574),DRSC16351,0.261,1.02,
sicily (GeneID 32151),DRSC19704,1.53,-2.2,0.884
CG11044 (GeneID 37281),DRSC06026,0.258,0.869,
CG14841 (GeneID 41735),DRSC14965,-0.806,0.48,
Ugt301D1 (GeneID 35105),DRSC02021,-1.27,0.0188,
CG14913 (GeneID 34532),DRSC02397,-0.548,-0.469,
TrissinR (GeneID 33812),DRSC02334,1.09,-2.53,
TrissinR (GeneID 33812),DRSC02335,0.183,-2.23,
TrissinR (GeneID 33812),DRSC02336,-1.13,0.491,
CG4770 (GeneID 42375),DRSC15639,0.768,0.487,
epsilonCOP (GeneID 33908),DRSC02003,-0.496,-0.0418,
CG6675 (GeneID 35439),DRSC03735,-1.58,-0.32,
nAChRalpha1 (GeneID 42918),DRSC13664,1.49,0.0544,
nAChRalpha1 (GeneID 42918),DRSC13670,-1.38,-2.19,
nAChRalpha1 (GeneID 42918),DRSC13672,0.75,-1.15,
nAChRalpha1 (GeneID 42918),DRSC17008,1.63,0.29,
CG1421 (GeneID 35432),DRSC03707,0.903,-1.07,
PAPLA1 (GeneID 34109),DRSC03095,1.54,0.174,
PAPLA1 (GeneID 34109),DRSC03096,-0.00702,-0.565,
CG32280 (GeneID 317952),DRSC08024,-0.128,-0.178,
Lsd-1 (GeneID 42810),DRSC14236,-1.67,-0.323,
Droj2 (GeneID 41646),DRSC16450,-0.653,11.6,
CG1648 (GeneID 36009),DRSC06610,0.524,-0.758,-0.796
CG8929 (GeneID 37306),DRSC07298,-0.258,-0.564,
CG8929 (GeneID 37306),DRSC22847,-1.8,1.07,
Oatp58Da (GeneID 37543),DRSC04365,-0.514,-0.655,

Looked up above:
Value for CG13041 (GeneID 39801) [DRSC09922] under “droplet/nuclear area B-score, replicate 2”: 0.467
Under “droplet/nuclear area B-score, replicate 1”, CG14913 (GeneID 34532) [DRSC02397] has -0.548
Obp50a (GeneID 246432) [DRSC22152], droplet/nuclear area B-score, replicate 2 = -0.266
Value for CG6675 (GeneID 35439) [DRSC03735] in “droplet/nuclear area B-score, replicate 1”: -1.58
For “droplet/nuclear area B-score, replicate 2”, CG42249 (GeneID 32043) [DRSC19383] has -1.66
Value of TrissinR (GeneID 33812) [DRSC02335] in “droplet/nuclear area B-score, replicate 1”: 0.183

The list goes on:
Gene,amplicon,"droplet/nuclear area B-score, replicate 1","droplet/nuclear area B-score, replicate 2","droplet/nuclear area B-score, replicate 3"
CG4830 (GeneID 41477),DRSC15657,0.178,0.299,
CG8478 (GeneID 41194),DRSC16427,-0.996,-1.36,
vrs (GeneID 41537),DRSC15832,-0.139,0.0636,
rgn (GeneID 40368),DRSC11609,-0.327,1.13,1.08
CG31741 (GeneID 35079),DRSC02887,2.26,0.533,
CG13049 (GeneID 39788),DRSC09930,-0.532,2.83,
Crk (GeneID 43775),DRSC17163,-0.0974,-0.688,
Gpdh1 (GeneID 33824),DRSC03336,0.201,-0.0961,-0.388
Gpdh1 (GeneID 33824),DRSC21666,2.19,-4.23,
CG14696 (GeneID 41317),DRSC14919,0.204,0.704,
CG1387 (GeneID 31770),DRSC17904,-0.574,-1.03,-0.233
CG32081 (GeneID 326194),DRSC09861,0.721,0.698,
side (GeneID 43300),DRSC14523,1.14,-1.5,0.263
side (GeneID 43300),DRSC14716,-2.51,0.753,
side (GeneID 43300),DRSC14717,-1.48,,
side (GeneID 43300),DRSC14718,-0.698,,
side (GeneID 43300),DRSC14721,1.93,-0.0317,
CG5509 (GeneID 41539),DRSC15822,0.3,0.857,
wgn (GeneID 32849),DRSC19998,-0.012,-0.534,
GlyT (GeneID 37772),DRSC04512,1.37,0.391,
CG15278 (GeneID 34865),DRSC02481,0.946,-0.118,
unc79 (GeneID 42310),DRSC15746,-0.29,-3.86,
CG2121 (GeneID 35814),DRSC06819,1.12,,
CG2121 (GeneID 35814),DRSC06820,-0.719,0.0393,
CG15256 (GeneID 34911),DRSC01940,0.911,-0.614,
tum (GeneID 36538),DRSC07575,1.44,0.382,
Pdzd8 (GeneID 32157),DRSC19355,-0.691,-0.872,-0.911
CG4374 (GeneID 42767),DRSC15570,-1.09,-0.0438,
CG14960 (GeneID 38403),DRSC08419,0.7,-1.54,
CG30196 (GeneID 37595),DRSC04156,0.846,-0.979,
PCNA2 (GeneID 35257),DRSC02030,-2.1,-0.0838,
